Assay results: paper PMC4736406 (Stem Cells International, 2016)
Where a name gives a salt, the structure may show the parent alone.

Tests used:
[1] = tested on: hiPSC derived hepatocytes (hiPS-HEP); test: Image based high content analysis (HCA), fixed and live assays, in hiPSC derived hepatocytes; details: 48 h;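 further: hiPS-HEP obtained from ChiPSC4 through definitive endoderm under serum- and feeder-free conditions in 96-well plates, fluorescence imaging, each concentration run in triplicate wells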
HepG2 cells = test: Image based high content analysis (HCA), fixed and live assays, in HepG2; details: ratio of minimal effective concentration to Cmax
Protocol: Briefly, the cells were grown in DMEM supplemented with 10% heat inactivated FBS, 1% penicillin-streptomycin (PEST), 1% sodium pyruvate, and 1% nonessential amino acids. Cells were passaged at 1 : 8 or 1 : 6 every 3-4 days when they reach 75–80% confluence. Seeding density was optimized for HCA application to ensure that the cells were in a monolayer (5000 cells per well in 96-well plates) for precise imaging. The cells were grown for 48 h to attach and stabilize. The experiments performed with HepG2 cells were designed to ensure that each assay was performed with cells in a similar growth phase.
Each concentration was assayed in triplicate wells. […] The experimental process is illustrated in Figure 2.
And finally, TOTO-3 was used for assessing PMP.
The cells were imaged using an Olympus ScanR system.
All other fluorescence signals were considered as subobjects.

[2] = plasma; no reference given; read-out: C max (maximum plasma concentration of the drug); cited from earlier work
[3] = tested on: hiPSC derived hepatocytes (hiPS-HEP); details: human, 48 h;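 further: hiPS-HEP obtained from ChiPSC4 through definitive endoderm under serum- and feeder-free conditions in 96-well plates, fluorescence imaging, each concentration run in triplicate wells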

## CCCCc1oc2ccccc2c1C(=O)c1cc(I)c(OCCN(CC)CC)c(I)c1 [Amiodarone, amiodarone hydrochloride]
[1]; fixed assay
  IC50/EC50 Nucleus Area: 2.2 µM
  IC50/EC50 Nucleus MI: 95.7 µM
  IC50/EC50 Phospholipidosis Area: 4.5 µM
[1]; live assay
  IC50/EC50 Nucleus Area: 10.4 µM
  IC50/EC50 PMP MI: 42.2 µM
HepG2 cells
  TR (toxicity risk): 1.8
[2]
  Cmax: 2200 nM
[3]
  Concentrations at which phospholipids were not detected (higher than): higher than 40 μM
  Doses at which hyperpolarization of mitochondrial membrane was detected (up to); MMP dropped at higher doses: up to 40 μM
  Increase in number of lipid droplets compared to control: 18 fold
  TR (toxicity risk): 5.7
